Measured values published in patent US20240285586A1, “METHODS FOR TREATING BACTERIAL CELL POPULATIONS” (THE HONG KONG POLYTECHNIC UNIVERSITY, priority 2021, published 2024).

System: E. coli BW25113 wild type
Experiment: Antibiotic accumulation assay (BOCILLIN, flow cytometry), wild type
Format: cell-based, Escherichia coli
Settings: control for the substance's own fluorescence signal (FIG. 10A)
Method: Antibiotic accumulation assay. The overnight bacteria culture was diluted 100-fold in LB broth and cultivated for about 1 hr until the OD600 value reached 0.2 (exponential phase). Aliquots of this exponential phase culture were washed and re-suspended in saline, cultured at 37° C. under constant shaking (250 rpm) for 24 hrs, followed by addition of CCCP (1 μM). After 5 mins, BOCILLIN™ FL Penicillin (10 μg/mL) was added and incubated at 37° C. with shaking at 250 rpm for 1 hr. Upon washing twice with PBS, fluorescence signal was measured by flow cytometry CytoFLEX (Beckman). Microorganisms were identified by FSC (forward scatter) and SSC (side scatter) parameters. Fluorescence intensity was measured at 488-nm excitation, 525-nm emission.

Structure (SMILES)	fluorescence level [RFU]
Cc1cc(C)n2c1C=C1C=CC(CCC(=O)Nc3ccc(OCC(=O)N[C@@H]4C(=O)N5[C@@H]4SC(C)(C)[C@@H]5C(=O)[O-])cc3)=[N+]1[B-]2(F)F.[Na+] [BOCILLIN]	~45000
N#CC(C#N)=NNc1cccc(Cl)c1 [CCCP, carbonyl cyanide-m-chlorophenylhydrazone]	~250
